Source: patent publication US20240041978A1, “LA PROTEIN AS A NOVEL REGULATOR OF OSTEOCLASTOGENESIS” (The U.S.A., as Represented by the Secretary, Department of …, priority 2021, published 2024)
Results are given in words; binding and its absence hold for the method and conditions named. Binding seen in cells or lysates may run through a third protein. Some binding calls cover weakened binding; strength is not graded here. Where a sequence is shown, tags or fusion partners need not be part of it.

By UniProt entry, the sequences of proteins in these tests, tags left out. Residues count along the entry.
UniProt P08758, residues 2-320: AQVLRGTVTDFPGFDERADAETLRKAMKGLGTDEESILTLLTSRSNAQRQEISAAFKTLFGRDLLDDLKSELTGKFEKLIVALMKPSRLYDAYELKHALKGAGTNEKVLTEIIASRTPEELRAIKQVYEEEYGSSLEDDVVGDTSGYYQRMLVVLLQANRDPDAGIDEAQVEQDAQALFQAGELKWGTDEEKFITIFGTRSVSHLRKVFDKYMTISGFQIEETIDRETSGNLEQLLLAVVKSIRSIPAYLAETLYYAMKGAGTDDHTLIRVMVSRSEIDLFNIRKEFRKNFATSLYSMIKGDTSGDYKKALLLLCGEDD

Target: T1, La protein (Lupus autoantigen), native, in lysates of fusing human osteoclasts (human) (UniProt P05455)
T1 sequence: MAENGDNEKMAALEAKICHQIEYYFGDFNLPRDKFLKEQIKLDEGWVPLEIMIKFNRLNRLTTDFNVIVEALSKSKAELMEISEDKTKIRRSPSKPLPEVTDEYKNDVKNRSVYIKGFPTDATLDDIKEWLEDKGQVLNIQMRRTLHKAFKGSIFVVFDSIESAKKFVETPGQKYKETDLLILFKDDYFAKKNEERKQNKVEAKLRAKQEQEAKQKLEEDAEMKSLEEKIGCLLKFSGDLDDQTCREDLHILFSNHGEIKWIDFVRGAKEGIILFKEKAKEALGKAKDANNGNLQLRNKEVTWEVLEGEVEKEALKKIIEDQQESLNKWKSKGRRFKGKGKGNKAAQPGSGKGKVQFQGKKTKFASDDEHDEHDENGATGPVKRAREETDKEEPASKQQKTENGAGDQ
Test: co-immunoprecipitation with α-Anx A5 from fusing human osteoclasts, immunoblot

## Annexin A5 (Anx A5), native, in fusing human osteoclasts (from UniProt P08758 2-320)
  binding: binds
